Results are given in words; binding and its absence hold for the method and conditions named. Binding seen in cells or lysates may run through a third protein. Here binding means that the protein was enriched with, or labelled near, the bait; the list need not be complete.
Tests used:
Assay in all cases: proximity labelling; BioID: BMP2K-L or -S tagged with BirA* at the N- or C-terminus, stably expressed in HEK293 cells; biotin labelling, pull down of biotinylated proteins on streptavidin-coupled magnetic beads, LC-MS/MS; Mascot scores of the Myc-BirA* or BirA*-HA controls subtracted; hits common to N- and C-terminally tagged baits
[1] = target: Myc-BirA*-BMP2K-S (human) (UniProt Q9NSY1)
BMP2K-S-BirA*-HA (human) = BMP2K-S-BirA*-HA (human) (UniProt Q9NSY1)
[2] = target: Myc-BirA*-BMP2K-L (human) (UniProt Q9NSY1)
BMP2K-L-BirA*-HA (human) = BMP2K-L-BirA*-HA (human) (UniProt Q9NSY1)

Sequences of proteins named here, by UniProt entry; tags and fusion partners are left off. A change or cut given only in a name is not applied to a line headed by its entry. A line that says so, or that is headed by a name, gives the form on record, which may keep a tag or linker.
UniProt Q9NSY1: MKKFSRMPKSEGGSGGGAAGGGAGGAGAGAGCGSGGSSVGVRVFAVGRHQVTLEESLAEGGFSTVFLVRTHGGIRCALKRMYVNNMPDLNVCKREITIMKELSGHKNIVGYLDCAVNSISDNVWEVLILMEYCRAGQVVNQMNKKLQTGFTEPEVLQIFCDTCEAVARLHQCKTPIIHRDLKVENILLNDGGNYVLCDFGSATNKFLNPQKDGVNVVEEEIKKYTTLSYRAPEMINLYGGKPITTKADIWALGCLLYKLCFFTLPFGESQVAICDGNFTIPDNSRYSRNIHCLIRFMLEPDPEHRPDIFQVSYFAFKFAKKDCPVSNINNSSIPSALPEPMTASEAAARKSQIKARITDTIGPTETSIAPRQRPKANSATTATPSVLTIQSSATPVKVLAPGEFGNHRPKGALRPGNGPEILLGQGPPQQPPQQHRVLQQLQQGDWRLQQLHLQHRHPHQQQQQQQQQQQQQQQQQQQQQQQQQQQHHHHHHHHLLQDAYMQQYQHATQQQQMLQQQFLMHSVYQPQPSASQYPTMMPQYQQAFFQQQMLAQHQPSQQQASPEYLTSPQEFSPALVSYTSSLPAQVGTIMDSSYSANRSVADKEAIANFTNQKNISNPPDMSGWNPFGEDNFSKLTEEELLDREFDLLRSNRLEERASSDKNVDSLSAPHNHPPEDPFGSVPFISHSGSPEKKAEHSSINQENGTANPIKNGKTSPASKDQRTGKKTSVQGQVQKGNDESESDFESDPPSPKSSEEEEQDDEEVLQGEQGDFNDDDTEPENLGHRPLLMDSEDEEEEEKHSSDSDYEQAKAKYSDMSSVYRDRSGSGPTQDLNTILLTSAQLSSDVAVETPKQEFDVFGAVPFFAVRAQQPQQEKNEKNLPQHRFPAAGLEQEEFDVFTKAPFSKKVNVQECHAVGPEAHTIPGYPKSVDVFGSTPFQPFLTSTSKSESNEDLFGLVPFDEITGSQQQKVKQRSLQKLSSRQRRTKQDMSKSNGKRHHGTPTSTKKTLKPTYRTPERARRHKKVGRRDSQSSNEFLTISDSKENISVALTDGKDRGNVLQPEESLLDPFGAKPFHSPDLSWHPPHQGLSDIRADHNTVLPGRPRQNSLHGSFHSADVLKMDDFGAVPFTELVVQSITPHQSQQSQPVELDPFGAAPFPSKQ
BMP2K-S-BirA*-HA (Q9NSY1, form named): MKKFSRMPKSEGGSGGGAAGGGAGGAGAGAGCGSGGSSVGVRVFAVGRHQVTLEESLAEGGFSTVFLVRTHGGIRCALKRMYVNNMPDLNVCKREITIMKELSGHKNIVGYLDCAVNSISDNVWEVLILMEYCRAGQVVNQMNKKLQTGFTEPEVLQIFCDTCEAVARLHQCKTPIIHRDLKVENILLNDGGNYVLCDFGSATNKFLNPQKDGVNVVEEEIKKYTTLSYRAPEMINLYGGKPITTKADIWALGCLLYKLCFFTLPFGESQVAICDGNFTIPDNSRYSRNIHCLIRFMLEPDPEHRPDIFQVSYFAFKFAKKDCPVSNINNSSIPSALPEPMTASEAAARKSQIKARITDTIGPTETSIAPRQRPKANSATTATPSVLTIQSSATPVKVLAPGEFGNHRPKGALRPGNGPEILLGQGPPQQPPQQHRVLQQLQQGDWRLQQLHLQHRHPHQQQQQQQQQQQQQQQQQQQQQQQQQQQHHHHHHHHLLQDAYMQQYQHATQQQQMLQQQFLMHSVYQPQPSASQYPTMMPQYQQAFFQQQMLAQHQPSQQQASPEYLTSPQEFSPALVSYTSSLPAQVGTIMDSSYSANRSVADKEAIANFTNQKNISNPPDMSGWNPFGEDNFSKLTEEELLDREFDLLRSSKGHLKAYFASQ
UniProt Q8N6T3: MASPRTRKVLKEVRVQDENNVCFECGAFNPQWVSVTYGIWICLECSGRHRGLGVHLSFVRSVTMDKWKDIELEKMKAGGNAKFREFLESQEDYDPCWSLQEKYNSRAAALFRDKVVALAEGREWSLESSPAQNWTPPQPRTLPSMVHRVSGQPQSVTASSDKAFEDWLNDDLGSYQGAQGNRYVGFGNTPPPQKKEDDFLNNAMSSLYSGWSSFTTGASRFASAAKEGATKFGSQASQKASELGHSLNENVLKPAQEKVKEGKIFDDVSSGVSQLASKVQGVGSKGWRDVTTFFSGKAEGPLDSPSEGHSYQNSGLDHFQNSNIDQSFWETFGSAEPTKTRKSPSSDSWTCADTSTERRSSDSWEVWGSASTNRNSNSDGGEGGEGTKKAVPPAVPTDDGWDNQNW

Molecule | binding [1] | binding (BMP2K-S-BirA*-HA (human)) | binding [2] | binding (BMP2K-L-BirA*-HA (human))
ARFGAP1 (from UniProt Q8N6T3 1-406) | binds | binds |  | 
NUMB (protein, UniProt P49757 1-651) MNKLRQSFRRKKDVYVPEASRPHQWQTDEEGVRTGKCSFPVKYLGHVEVDESRGMHICEDAVKRLKAERKFFKGFFGKTGKKAVKAVLWVSADGLRVVDEKTKDLIVDQTIEKVSFCAPDRNFDRAFSYICRDGTTRRWICHCFMAVKDTGERLSHAVGCAFAACLERKQKREKECGVTATFDASRTTFTREGSFRVTTATEQAEREEIMKQMQDAKKAETDKIVVGSSVAPGNTAPSPSSPTSPTSDATTSLEMNNPHAIPRRHAPIEQLARQGSFRGFPALSQKMSPFKRQLSLRINELPSTMQRKTDFPIKNAVPEVEGEAESISSLCSQITNAFSTPEDPFSSAPMTKPVTVVAPQSPTFQANGTDSAFHVLAKPAHTALAPVAMPVRETNPWAHAPDAANKEIAATCSGTEWGQSSGAASPGLFQAGHRRTPSEADRWLEEVSKSVRAQQPQASAAPLQPVLQPPPPTAISQPASPFQGNAFLTSQPVPVGVVPALQPAFVPAQSYPVANGMPYPAPNVPVVGITPSQMVANVFGTAGHPQAAHPHQSPSLVRQQTFPHYEASSATTSPFFKPPAQHLNGSAAFNGVDDGRLASADRHTEVPTGTCPVDPFEAQWAALENKSKQRTNPSPTNPFSSDLQKTFEIEL | binds | binds | binds | binds
AGFG1 (HRB) (protein, UniProt P52594 1-562) MAASAKRKQEEKHLKMLRDMTGLPHNRKCFDCDQRGPTYVNMTVGSFVCTSCSGSLRGLNPPHRVKSISMTTFTQQEIEFLQKHGNEVCKQIWLGLFDDRSSAIPDFRDPQKVKEFLQEKYEKKRWYVPPEQAKVVASVHASISGSSASSTSSTPEVKPLKSLLGDSAPTLHLNKGTPSQSPVVGRSQGQQQEKKQFDLLSDLGSDIFAAPAPQSTATANFANFAHFNSHAAQNSANADFANFDAFGQSSGSSNFGGFPTASHSPFQPQTTGGSAASVNANFAHFDNFPKSSSADFGTFNTSQSHQTASAVSKVSTNKAGLQTADKYAALANLDNIFSAGQGGDQGSGFGTTGKAPVGSVVSVPSQSSASSDKYAALAELDSVFSSAATSSNAYTSTSNASSNVFGTVPVVASAQTQPASSSVPAPFGATPSTNPFVAAAGPSVASSTNPFQTNARGATAATFGTASMSMPTGFGTPAPYSLPTSFSGSFQQPAFPAQAAFPQQTAFSQQPNGAGFAAFGQTKPVVTPFGQVAAAGVSSNPFMTGAPTGQFPTGSSSTNPFL | binds | binds | binds | binds

The remaining lines, values ahead:

binding [1] | binding (BMP2K-S-BirA*-HA (human)) | binding [2] | binding (BMP2K-L-BirA*-HA (human)) | Molecule
binds | binds | binds | binds | PICALM (protein, UniProt Q13492 1-652) MSGQSLTDRITAAQHSVTGSAVSKTVCKATTHEIMGPKKKHLDYLIQCTNEMNVNIPQLADSLFERTTNSSWVVVFKSLITTHHLMVYGNERFIQYLASRNTLFNLSNFLDKSGLQGYDMSTFIRRYSRYLNEKAVSYRQVAFDFTKVKRGADGVMRTMNTEKLLKTVPIIQNQMDALLDFNVNSNELTNGVINAAFMLLFKDAIRLFAAYNEGIINLLEKYFDMKKNQCKEGLDIYKKFLTRMTRISEFLKVAEQVGIDRGDIPDLSQAPSSLLDALEQHLASLEGKKIKDSTAASRATTLSNAVSSLASTGLSLTKVDEREKQAALEEEQARLKALKEQRLKELAKKPHTSLTTAASPVSTSAGGIMTAPAIDIFSTPSSSNSTSKLPNDLLDLQQPTFHPSVHPMSTASQVASTWGDPFSATVDAVDDAIPSLNPFLTKSSGDVHLSISSDVSTFTTRTPTHEMFVGFTPSPVAQPHPSAGLNVDFESVFGNKSTNVIVDSGGFDELGGLLKPTVASQNQNLPVAKLPPSKLVSDDLDSSLANLVGNLGIGNGTTKNDVNWSQPGEKKLTGGSNWQPKVAPTTAWNAATMAPPVMAYPATTPTGMIGYGIPPQMGSVPVMTQPTLIYSQPVMRPPNPFGPVSGAQIQFM
binds | binds |  |  | SEC24B (protein, UniProt O95487 1-1268) MSAPAGSSHPAASARIPPKFGGAAVSGAAAPAGPGAGPAPHQQNGPAQNQMQVPSGYGLHHQNYIAPSGHYSQGPGKMTSLPLDTQCGDYYSALYTVPTQNVTPNTVNQQPGAQQLYSRGPPAPHIVGSTLGSFQGAASSASHLHTSASQPYSSFVNHYNSPAMYSASSSVASQGFPSTCGHYAMSTVSNAAYPSVSYPSLPAGDTYGQMFTSQNAPTVRPVKDNSFSGQNTAISHPSPLPPLPSQQHHQQQSLSGYSTLTWSSPGLPSTQDNLIRNHTGSLAVANNNPTITVADSLSCPVMQNVQPPKSSPVVSTVLSGSSGSSSTRTPPTANHPVEPVTSVTQPSELLQQKGVQYGEYVNNQASSAPTPLSSTSDDEEEEEEDEEAGVDSSSTTSSASPMPNSYDALEGGSYPDMLSSSASSPAPDPAPEPDPASAPAPASAPAPVVPQPSKMAKPFGYGYPTLQPGYQNATAPLISGVQPSNPVYSGFQQYPQQYPGVNQLSSSIGGLSLQSSPQPESLRPVNLTQERNILPMTPVWAPVPNLNADLKKLNCSPDSFRCTLTNIPQTQALLNKAKLPLGLLLHPFRDLTQLPVITSNTIVRCRSCRTYINPFVSFIDQRRWKCNLCYRVNDVPEEFMYNPLTRSYGEPHKRPEVQNSTVEFIASSDYMLRPPQPAVYLFVLDVSHNAVEAGYLTILCQSLLENLDKLPGDSRTRIGFMTFDSTIHFYNLQEGLSQPQMLIVSDIDDVFLPTPDSLLVNLYESKELIKDLLNALPNMFTNTRETHSALGPALQAAFKLMSPTGGRVSVFQTQLPSLGAGLLQSREDPNQRSSTKVVQHLGPATDFYKKLALDCSGQQTAVDLFLLSSQYSDLASLACMSKYSAGCIYYYPSFHYTHNPSQAEKLQKDLKRYLTRKIGFEAVMRIRCTKGLSMHTFHGNFFVRSTDLLSLANINPDAGFAVQLSIEESLTDTSLVCFQTALLYTSSKGERRIRVHTLCLPVVSSLADVYAGVDVQAAICLLANMAVDRSVSSSLSDARDALVNAVVDSLSAYGSTVSNLQHSALMAPSSLKLFPLYVLALLKQKAFRTGTSTRLDDRVYAMCQIKSQPLVHLMKMIHPNLYRIDRLTDEGAVHVNDRIVPQPPLQKLSAEKLTREGAFLMDCGSVFYIWVGKGCDNNFIEDVLGYTNFASIPQKMTHLPELDTLSSERARSFITWLRDSRPLSPILHIVKDESPAKAEFFQHLIEDRTEAAFSYYEFLLHVQQQICK

Source: article PMC7473771
